Data as given in patent publication US20040132819A1, “Appetite control method” (priority 2002, published 2004).
For at least one compound, name, drawing or mass did not settle the structure.

Experiments:
Format in all cases: in vivo, Sprague-Dawley rat
Conditions in all cases: ANOVA main effect
[1] = system: rat brain N-acylethanolamines; assay: N-acylethanolamine (NAE) levels in rat brain
Experimental: (§1) Total lipid was extracted from rat brains using the Folch extraction method, typical for lipid extraction (Folch et al, 1957). The total lipid extract from each rat brain was separated into neutral lipid and phospholipid fractions using a silica cartridge. The neutral lipid fraction was further separated into MAG and NAE fractions using High Performance Liquid Chromatography (HPLC). Fatty acid composition of the MAG, NAE, and phospholipid fractions was determined using Gas-Liquid Chromatography (GLC) after derivatizing to the corresponding fatty acid methyl esters. The fatty acid composition results correspond to total fatty acids in the membrane phospholipids in brain, and the MAG and NAE fatty acid results represent the concentration of these fatty acyl derivatives in rat brains.
(§2) Rat brain samples, stored frozen at −70° C., were separated into the two hemispheres; one half was used for determination of fatty acids in phospholipid, MAG, and NAE fractions and the other half was refrozen at −70° C. The half brain for analysis was transferred to a 50-mL glass centrifuge tube. Eight mL of methanol was added and the sample homogenized using a Polytron Dispersing and Mixing System (Kinematica, Switzerland) until well blended. The homogenizer probe was rinsed with 2 mL methanol added directly into the centrifuge tube. […]

[2] = system: rat brain monoacylglycerols; assay: Monoacylglycerol (MAG) levels in rat brain
Experimental: as §1, §2

[3] = system: rat brain phospholipid membrane; assay: Fatty acid levels in rat brain phospholipid membrane
Experimental: as §1
Rat brain samples, stored frozen at −70° C., were separated into the two hemispheres; one half was used for determination of fatty acids in phospholipid, MAG, and NAE fractions and the other half was refrozen at −70° C. The half brain for analysis was transferred to a 50-mL glass centrifuge tube. Eight mL of methanol was added and the sample homogenized using a Polytron Dispersing and Mixing System (Kinematica, Switzerland) until well blended. The homogenizer probe was rinsed with 2 mL methanol added directly into the centrifuge tube. Twenty mL of chloroform was then added to the sample and mixed vigorously by shaking. The sample was left undisturbed at room temperature for at least 1 hour. Known amounts of internal standards, 9.91 μg of monoheptadecanoin and 3.32 μg of docosatrienoyl ethanolamine, were added. Six mL of 0.9% saline was then added and the sample mixed vigorously by shaking. The sample was then centrifuged for 7 minutes at 2000 rpm at 15° C. until the organic and aqueous layers were well separated using a Beckman Allegra™ 6R Centrifuge; Fullerton, Calif.). The chloroform (bottom) layer was aspirated into a clean 30-mL test tube. The sample was then evaporated to dryness under N2 and was either stored at −20° C. or reconstituted in 500 μL of chloroform. […]

`CC/C=C\C/C=C\C/C=C\C/C=C\C/C=C\C/C=C\CCC(=O)O` [DHA, docosahexaenoic acid] was tested, and the “main effects on n-6 or n-3 NAE fatty acids in brain” value [1] was “No significant main effects”, the “main effect on 22:6n-3 MAG in brain” value [2] was “increasing” and the “main effect on total n-3 MAG in brain” value [2] was “increasing”. For the same compound, the “main effect on AA and C22:4n-6 levels in brain phospholipids” value [3] was “decreasing”, the “main effect on brain phospholipid DHA” value [3] was “increased” and the “main effect on linoleic acid (C18:2n-6) and C20:3n-6 levels in brain phospholipids” value [3] was “increasing”.
